No constants are given. Whether binding was seen depends on the method and setting. In cells and extracts the contact can be indirect. A yes stands for co-enrichment or nearness to the bait. Other partners may have been found.
Experiments:
[1] = target: T1, ɛ‐sarcoglycan (rat, endogenous; all isoforms caught by the pan antibody esg‐4990) (rat (endogenous in brain and heart)) (UniProt Q6YAT4); assay: affinity purification with mass spectrometry; esg‐4990‐conjugated protein A agarose beads, rat brain solubilized in RIPA buffer, 4 °C; Coomassie bands between 55 and 25 kDa excised; protein A bead control
T1 sequence: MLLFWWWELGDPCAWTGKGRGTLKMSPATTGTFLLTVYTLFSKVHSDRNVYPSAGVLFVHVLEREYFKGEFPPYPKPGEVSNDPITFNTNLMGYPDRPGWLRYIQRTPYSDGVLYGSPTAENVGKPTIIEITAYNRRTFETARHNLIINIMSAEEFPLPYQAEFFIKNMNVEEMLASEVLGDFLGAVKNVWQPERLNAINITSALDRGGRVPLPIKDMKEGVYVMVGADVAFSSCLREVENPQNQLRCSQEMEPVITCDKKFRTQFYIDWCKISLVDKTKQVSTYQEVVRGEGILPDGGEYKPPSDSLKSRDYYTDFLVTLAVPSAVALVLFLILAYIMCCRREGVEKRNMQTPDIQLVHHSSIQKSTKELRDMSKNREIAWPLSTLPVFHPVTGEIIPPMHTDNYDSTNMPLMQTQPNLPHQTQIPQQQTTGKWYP

[2] = target: T1, ɛ‐sarcoglycan (rat, endogenous; all isoforms caught by the pan antibody esg‐4990) (rat (endogenous in brain and heart)); assay: affinity purification with mass spectrometry; esg‐4990‐conjugated protein A agarose beads, rat heart solubilized in RIPA buffer, 4 °C; Coomassie bands excised; protein A bead control

Substance	binding [1]	binding [2]
β‐sarcoglycan (rat, endogenous)	binds	binds
γ‐sarcoglycan (rat, endogenous)	binds	binds
δ‐sarcoglycan (rat, endogenous)	binds	binds
ζ‐sarcoglycan (rat, endogenous)	binds	–

From article PMC5129563
